These results are taken from patent US10052301B2, “Derivatives of propane diyl dicinnamate” (ORX PHARMACEUTICAL CORPORATION, priority 2009, dated 2018).

SMILES strings stand for the structures.

What all share (format): cell-based
The test system of data set [1] is A549 (human lung carcinoma cells). Kind of data set: MTT cell proliferation and viability assay, A549. The following applies: IC50(GM9503)/IC50(A549). As for the experimental part:
(§1) Normal human fibroblast cell lines (GM9503 and GM8399) and human carcinoma cell lines MCF-7, A549, HCT116, SKOV-3 and PC-3 were maintained in DMEM (Dulbeco's Modified Essential Medium) supplemented with 10% FBS (Fetal Bovine Serum). In addition, murine leukemia MDAY-D2 cells were maintained in RPMI 1640 media supplemented with 5% FBS. All media were supplemented with 100 […] (all from Hyclone, Logan, Utah). Cells were incubated in a humidified air atmosphere containing 5% CO2 at 37° C.
(§2) Cell growth and viability were measured using the 3-(4,5-dimethythiazol-2-yl)-2,5-diphenyl tetrazolium bromide (MTT) reduction assay. MTT reagent (Sigma, St. Louis, Mo.) was prepared at 5 mg/ml in ddH2O (5× solution), filter sterilized and stored in the dark at −20° C.
(§3) To determine the optimal number of cells to seed per well, preliminary experiments were conducted examining increasing cell densities in 96 well plates. Cell were seeded at various densities and examined under the microscope after 96 h. Based on these experiments and growth curve analyses, optimal cell densities were selected for each cell line. […] Three hours after the addition of MTT, the amount of formazan formed was measured spectrophotometrically at 570 nm with a Spectramax Plus 384 plate reader.
(§4) To assess the effects of the novel compounds on growth and viability, GM9503 (normal human fibroblast cells; 2.08×10^3 cells/well), GM8399 (normal human fibroblast cells; 2.04×10^3 cells/well), A549 (human lung carcinoma cells; 2.05×10^3 cells/well), HCT116 (human colon carcinoma cells; 2.19×10^3 cells/well), MCF-7 (human breast carcinoma cells; 2.19×10^3 cells/well), SKOV-3 (human ovarian carcinoma cells; 2.10×10^3 cells/well), PC-3 (human prostate carcinoma cells; 2.08×10^3 cells/well) and MDAY-D2 (murine leukemia cells; 2.5×10^3 cells/well) were seeded in 96 well plates in supplemented medium. […] After incubation for 72 h, cell growth and viability were measured. […]

Data set [2] relates to SKOV-3 (human ovarian carcinoma cells). Kind of data set: MTT cell proliferation and viability assay, SKOV-3. The following applies: IC50(GM9503)/IC50(SKOV-3). As for the experimental part: as §1, §2, §3, §4
Data set [3] relates to PC-3 (human prostate carcinoma cells). Nature of the data set: MTT cell proliferation and viability assay, PC-3. The following applies: IC50(GM9503)/IC50(PC-3). On the procedure: as §1, §2, §3, §4
For data set [4], the system named is MCF-7 (human breast carcinoma cells). Kind of data set: MTT cell proliferation and viability assay, MCF-7. Conditions: IC50(GM9503)/IC50(MCF-7). On the procedure:
as §1, §2, §3, §4

The test system of data set [5] is HCT116 (human colon carcinoma cells). Kind of data set: MTT cell proliferation and viability assay, HCT116. Conditions: IC50(GM9503)/IC50(HCT116). As for the experimental part: as §1, §2, §3, §4

For `O=C(/C=C/c1ccccc1)OCC(O)COC(=O)/C=C/c1ccc(O)c(O)c1` (stereo not drawn) [Compound (Ie), (E)-3-(cinnamoyloxy)-2-hydroxypropyl 3-(3,4-dihydroxypheyl)acrylate], in data set [1], the “therapeutic (safety) index A549 (Lung)” value is given as 1.12. Besides, the “therapeutic (safety) index SKOV-3 (Ovarian)” value in data set [2] was found to be 2.26. Moreover, the “therapeutic (safety) index PC-3 (Prostate)” value in data set [3] was determined as 4.14. In addition, the “therapeutic (safety) index MCF-7 (Breast)” value in data set [4] came out at 1.13. For the same compound, in data set [5], the “therapeutic (safety) index HCT116 (Colon)” value was 1.34.

For `COc1ccc(/C=C/C(=O)OCC(O)COC(=O)/C=C/c2ccccc2)cc1OC` (stereo not drawn) [Compound (Id), (E)-3-(cinnamoyloxy)-2-hydroxypropyl 3-(3,4-dimethoxyphenyl) acrylate], in data set [1], the “therapeutic (safety) index A549 (Lung)” value turned out to be 3.31. Moreover, the “therapeutic (safety) index SKOV-3 (Ovarian)” value in data set [2] is listed as 2.74. In addition, in data set [3], the “therapeutic (safety) index PC-3 (Prostate)” value came out at 6.64. The “therapeutic (safety) index MCF-7 (Breast)” value in data set [4] is given as 0.70. For the same compound, the “therapeutic (safety) index HCT116 (Colon)” value in data set [5] is listed as 5.25.

`O=C(/C=C/c1ccc(O)c(O)c1)OCC(O)COC(=O)/C=C/c1ccc(O)c(O)c1` [Compound (IIb), (2E,2′E)-2-hydroxypropane-1,3-diyl bis(3-(3,4-dihroxyphenyl) acrylate]: the “therapeutic (safety) index A549 (Lung)” value in data set [1] is given as 3.38. In data set [2], the “therapeutic (safety) index SKOV-3 (Ovarian)” value is 4.51. Also, in data set [3], the “therapeutic (safety) index PC-3 (Prostate)” value was determined as 10.52. Besides, in data set [4], the “therapeutic (safety) index MCF-7 (Breast)” value is listed as 0.95. Besides, the “therapeutic (safety) index HCT116 (Colon)” value in data set [5] worked out at 2.63.
